In PMC9557730:
Results are given in words; binding and its absence hold for the method and conditions named. Binding seen in cells or lysates may run through a third protein. These calls come from enrichment with a bait or labelling near it, and not all partners need be listed. Tags and fused reporters may be left off the sequences shown.

Biological target: T1, C-terminal protein A (pA)-tagged Rad3 (Saccharomyces cerevisiae) (UniProt P06839)
T1 sequence: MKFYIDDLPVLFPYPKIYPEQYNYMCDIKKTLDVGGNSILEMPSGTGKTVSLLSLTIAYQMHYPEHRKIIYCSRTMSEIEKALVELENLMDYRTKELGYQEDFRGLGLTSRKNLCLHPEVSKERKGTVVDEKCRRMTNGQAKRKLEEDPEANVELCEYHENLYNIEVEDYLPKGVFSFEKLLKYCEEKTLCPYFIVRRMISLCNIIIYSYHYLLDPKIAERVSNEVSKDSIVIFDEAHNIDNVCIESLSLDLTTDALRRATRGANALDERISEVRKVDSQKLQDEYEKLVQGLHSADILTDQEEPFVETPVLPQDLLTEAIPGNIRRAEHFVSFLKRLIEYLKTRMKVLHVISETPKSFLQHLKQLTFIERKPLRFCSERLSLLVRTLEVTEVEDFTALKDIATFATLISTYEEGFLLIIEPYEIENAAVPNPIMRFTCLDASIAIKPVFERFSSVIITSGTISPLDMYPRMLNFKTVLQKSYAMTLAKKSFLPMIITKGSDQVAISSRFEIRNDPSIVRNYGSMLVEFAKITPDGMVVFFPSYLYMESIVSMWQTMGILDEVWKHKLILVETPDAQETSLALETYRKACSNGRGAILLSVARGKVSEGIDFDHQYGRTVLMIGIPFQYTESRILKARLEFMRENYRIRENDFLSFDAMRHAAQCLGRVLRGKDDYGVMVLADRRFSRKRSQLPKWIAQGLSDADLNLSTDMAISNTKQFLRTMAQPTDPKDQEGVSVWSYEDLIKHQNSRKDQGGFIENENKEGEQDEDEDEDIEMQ
Assay: affinity purification with mass spectrometry; as a7, from the strain with Tfb2 YL399–400AA

B1: Tfb6 (protein, UniProt Q08816 1-343)
chain: MSEPNTPLHAQPNEQLDLNNLNDLDEKDIDDLNLDPNSDVEISADSGDVVNSNIDNVIWQRNCNKKRRYHTPEFNDVYNETNNTINDVTMLDDVDDFQPRINVSSPFSSATKLSELLPNDHNGTSHPRRLSMSQQSKFISYVDDQLLQIQRKFVQSRGLNIKNGYASLTPLLQDLKTLVDFVWYSIAHVPNSDYLLQSEEKRHCPDSRNPKDTCGYSSYFGQGSYLIKIADDLIDYVEKFTFKNMEDSEINDTLSKLFKLFFILDRIFVILTDDNDNCKEVPKTSSASKNIAGLNGTDIVRLKGIAERTRVRLPIFLESQGIHGYHYELSKIYEGFLDHANSF
Q: How did the binding turn out when B1 was run?
A: binds
